Test results reported in article PMC11551190.
No constants are given. Whether binding was seen depends on the method and setting. Binding seen in cells or lysates may run through a third protein. Some entries that bind do so weakly or less than the wild type.

Sequences of proteins named here, by UniProt entry; tags and fusion partners are left off.
UniProt P60880: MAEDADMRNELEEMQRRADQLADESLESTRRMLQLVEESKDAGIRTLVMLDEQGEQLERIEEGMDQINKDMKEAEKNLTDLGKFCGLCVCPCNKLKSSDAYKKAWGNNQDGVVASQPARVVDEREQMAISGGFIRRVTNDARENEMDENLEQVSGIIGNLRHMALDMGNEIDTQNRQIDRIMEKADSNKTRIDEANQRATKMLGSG

Molecular target: SNAP25 (human (endogenous in HLFs)) (UniProt P60880)
Assay: co-IP; reciprocal immunoprecipitation from HLF lysate (IP lysis buffer with protease/phosphatase inhibitors), precleared with protein A/G PLUS-Agarose, primary antibodies and protein A/G PLUS-Agarose at 4 °C overnight, western blot

binding: binds
B1: STX11 (protein, UniProt O75558 1-287)
chain: MKDRLAELLDLSKQYDQQFPDGDDEFDSPHEDIVFETDHILESLYRDIRDIQDENQLLVADVKRLGKQNARFLTSMRRLSSIKRDTNSIAKAIKARGEVIHCKLRAMKELSEAAEAQHGPHSAVARISRAQYNALTLTFQRAMHDYNQAEMKQRDNCKIRIQRQLEIMGKEVSGDQIEDMFEQGKWDVFSENLLADVKGARAALNEIESRHRELLRLESRIRDVHELFLQMAVLVEKQADTLNVIELNVQKTVDYTGQAKAQVRKAVQYEEKNPCRTLCCFCCPCLK
